Values quoted from earlier work, collected in patent US20250017878A1 (Chronic Airway Therapeutics Limited, priority 2021, published 2025).

Conditions: after oral intake; cited from earlier work

## CC(C)[N+]1(C)[C@@H]2CC[C@H]1C[C@@H](OC(=O)C(CO)c1ccccc1)C2 (stereo partly shown) [Ipratropium bromide, ipratropium bromide]
  time of peak plasma concentrations: 3 h
